# Source: the supplement of paper PMC10735217
# Counter-ions that a name gives are not always drawn. This is one part of the list. Single values are uncertain here, since repeats match poorly.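 Human kidney-derived cells stably carry a construct in which eight TEAD-binding elements drive luciferase, measured by luminescence in a drug-repurposing library screen. A hit is any compound whose signal exceeds the plate mean by more than five robust Z scores.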
# Test system: HEK293A TEAD-LUC reporter
# Test: TEAD-luciferase reporter activity (YAP activation), robust Z score vs plate; higher = stronger YAP/TEAD activation
# Conditions: 24 h
Structure (SMILES),TEAD-luciferase reporter activity (compound concentration: 200 nM),TEAD-luciferase reporter activity (compound concentration: 2 uM),TEAD-luciferase reporter activity (compound concentration: 10 uM)
CCOP(=S)(OCC)Oc1ccc2c(C)c(Cl)c(=O)oc2c1 [Coumaphos],inactive: -0.0838,inactive: -1.17,inactive: -0.0716
COc1cc(C(=O)N2CCC(CCN3CCC(C(N)=O)(c4ccccc4)CC3)(c3ccc(Cl)c(Cl)c3)C2)cc(OC)c1OC (stereo not given),inactive: 0.158,inactive: -0.353,inactive: 0.957
C[C@H]1CC(=O)C[C@@H]2CC[C@H]3[C@@H]4CC[C@H](O)[C@@]4(C)CC[C@@H]3[C@]21C [Mesterolone],inactive: -0.239,–,inactive: 2.79
COc1ccc(C(C)C)cc1CNC1C2CCN(CC2)C1C(c1ccccc1)c1ccccc1 (stereo not given),inactive: 0.0842,inactive: -0.0894,inactive: 0.179
C[C@H]1N=C(c2ccccc2Cl)c2cc([N+](=O)[O-])ccc2NC1=O,inactive: -1.74,inactive: -1.04,inactive: 0.199
COc1cc2c(cc1OC)C1CC(=O)C(CC(C)C)CN1CC2 (stereo not given) [tetrabenazine MR],–,inactive: -0.367,–
COc1cc2c(cc1OC)C1CC(=O)C(CC(C)C)CN1CC2 (stereo not given) [Tetrabenazine],inactive: -2.84,–,inactive: 2.83
COc1ccc(CC(=O)N2CNC(=O)C23CCN(C(=O)[C@@H](N)c2ccccc2)CC3)cc1,inactive: 0.632,–,inactive: -0.614
C[C@]12Cc3c[nH]nc3CC1CCC1C2CC[C@@]2(C)C1CC[C@]2(C)O (stereo not given in full) [Androstanazole],inactive: 1.01,inactive: 0.584,inactive: 3.87
O=[As]O[As]=O (stereo not given),–,inactive: 1.2,–
O=C(O)C1(c2ccc3c(c2)OC[C@H](Cc2ccc(-c4ccccc4)cc2)[C@H]3O)CCCC1,inactive: -0.332,inactive: -1.28,inactive: 1.19
c1ccc(C2(c3ccccc3)OC[C@H]([C@@H]3CCCCN3)O2)cc1 [Dexoxadrol],inactive: -1.12,inactive: -1.06,inactive: 0.988
COc1ccc(/C=C2\CCCN=C2c2cccnc2)c(OC)c1 [DMXB-Anabaseine],inactive: 0.588,inactive: -1.83,inactive: 0.361
C[C@]12CC[C@H](O)C[C@H]1CC[C@@H]1[C@@H]2CC[C@]2(C)[C@@](O)(c3ccoc3)CC[C@]12O [rostafuroxin],inactive: -0.945,inactive: -1.13,active: 9.03
C1CCC2[NH2+][Pt][NH2+]C2C1 (stereo not given),inactive: -0.0414,inactive: -0.427,inactive: 0.174
COc1ccc(C(=O)N2CCCC2C(=O)N2CCC(N3Cc4ccccc4C3=O)CC2)cc1 (stereo not given),inactive: -0.277,–,inactive: 0.649
CCCCC1C(=O)NC(=O)N(C2CCCCC2)C1=O (stereo not given),inactive: -1.75,inactive: -1.73,inactive: 0.5
CC[N+]1(CC)CCC(OC(=O)C(O)(c2ccccc2)c2ccccc2)C1 (stereo not given),inactive: -0.386,inactive: -1.62,inactive: -0.571
O=C1CN=C(c2ccccc2)c2ccccc2N1Cc1ccc([N+](=O)[O-])cc1,inactive: -1.87,inactive: -0.921,inactive: -1.88
O=C(Cc1ccc(-c2ccc(N3CCOCC3)cc2)cn1)NCc1cccc(F)c1,inactive: 0.00162,active: 7.77,active: 14.8
C[C@H]1CCCC[C@@]1(c1cccs1)N1CCCCC1,inactive: -0.296,inactive: -0.45,active: 6.22

Structure (SMILES),TEAD-luciferase reporter activity (compound concentration: 200 nM),TEAD-luciferase reporter activity (compound concentration: 2 uM),TEAD-luciferase reporter activity (compound concentration: 10 uM)
CO[C@@]12[C@H](COC(N)=O)C3=C(C(=O)C(C)=C(Nc4ccc(O)cc4)C3=O)N1C[C@@H]1N[C@@H]12,inactive: -0.481,inactive: -2.4,inactive: -1.63
[O-][N+]1=C(c2ccccc2)c2cc(Cl)ccc2N=C(O)C1,inactive: -0.355,inactive: -1.98,inactive: -1.77
C[C@@H](N)Cc1c[nH]cn1 [(R)-alpha-Methylhistamine],inactive: -0.143,inactive: -1.7,inactive: 3.13
"OCCSSCCO [2,2'-disulfanediyldiethanol]",inactive: -0.477,inactive: -1.34,inactive: -0.344
O=C(OCC1CC1)c1ncn2c1C1CCN1C(=O)c1c(Cl)cccc1-2 (stereo not given),inactive: -0.416,inactive: -1.08,inactive: -0.644
S=C1CN=C(c2ccccc2)c2cc(Cl)ccc2N1,inactive: 2.13,inactive: -2.39,inactive: 3.36
CN[C@@H]1C[C@@H](c2ccc(Cl)c(Cl)c2)c2ccccc21 [Indatraline],inactive: -0.0677,–,inactive: 0.498
CN[C@@H]1C[C@@H](c2ccc(Cl)c(Cl)c2)c2ccccc21,–,inactive: -1.07,–
CCCC[N+]1(C)[C@@H]2C[C@@H](OC(=O)[C@H](CO)c3ccccc3)C[C@H]1[C@@H]1O[C@@H]12 (stereo not given in full) [Scopolamine n-butylbromide],inactive: -0.869,inactive: -0.634,inactive: -0.193
O=C(Nc1ccc2ncccc2c1)C(=O)c1cn(Cc2ccc(Cl)cc2)c2ccccc12 [Entasobulin],inactive: 1.83,inactive: 3.61,active: 9.42
c1nc(NC2=NCC3(O2)CN2CC[C@H]3CC2)cc(n1)n1cncc1 (stereo not given),inactive: -0.564,inactive: -1.34,inactive: -1.35
CC(=O)OC1(C(C)CN(C)C)CCCCC1c1ccccc1 (stereo not given),inactive: -0.436,inactive: -1.55,inactive: -1.1
"Nc1ccncc1 [4-aminopyridine, Neurorecovery]",inactive: 0.0303,inactive: -1.9,inactive: 0.0175
CCCCCCCCC1OOC(CCCCCCCC(=O)OC)O1 (stereo not given),inactive: 0.601,inactive: -1.01,inactive: 3.49
CCN1CCCCC12Cc1ccccc1CN(C(=O)Cc1ccc(OC)cc1)C2 (stereo not given),inactive: -0.784,–,inactive: 1.26
CN1CCCC1CCSc1ccc(O)cc1 (stereo not given),inactive: -1.41,inactive: -1.76,inactive: 0.0227
CCOc1ccccc1-n1c(CN2CCNCC2)nc2ccccc2c1=O,inactive: -0.478,inactive: -2.27,inactive: -2.32
CCC1(CC)C(=O)NC(=O)N(c2ccccc2)C1=O,inactive: -0.339,inactive: -1.15,inactive: -1.18
COc1ccc(C(CN(C)C)C2(O)CCCCC2)cc1 (stereo not given) [venlafaxine hydrochloride],–,inactive: -1.15,–
COc1ccc(C(CN(C)C)C2(O)CCCCC2)cc1 (stereo not given),inactive: 0.739,–,inactive: -1.5
O=C(NCc1ccccc1)c1cnc(Nc2cccc(Cl)c2)nc1C(F)(F)F,inactive: 3.03,inactive: -0.195,inactive: -0.764

Structure (SMILES),TEAD-luciferase reporter activity (compound concentration: 200 nM),TEAD-luciferase reporter activity (compound concentration: 2 uM),TEAD-luciferase reporter activity (compound concentration: 10 uM)
NCCc1ccc(O)cc1,inactive: 1.17,inactive: -1.42,inactive: -0.651
O=C(c1ccncc1)N1CC2CCC(C1)N2Cc1cccc(Cl)c1,inactive: 1.25,–,inactive: 0.108
O=C(O)C(=O)c1cn(Cc2ccccc2)c2ccc(-c3ccc(OC(F)(F)F)cc3)cc12 [Tiplasinin],inactive: -0.75,inactive: -1.76,inactive: -1.21
C[C@]12CC[C@H]3[C@@H](CCC4=CC(=O)CC[C@@]43C)[C@@H]1CC[C@@H]2OC(=O)CCc1ccccc1,inactive: -1.93,inactive: 0.259,inactive: -1.29
CN(C)C(=O)Oc1ccc[n+](C)c1 [Mestinon],inactive: -1.59,–,inactive: 0.146
CN(C)C(=O)Oc1ccc[n+](C)c1 [Pyridostigmine bromide],–,inactive: -1.49,–
NC[C@@H]1Cc2ccc(F)cc2[C@H](c2ccccc2)O1,inactive: -0.303,inactive: -0.584,inactive: 1.45
O=C(C1CCCC1)N1CCC(C(=O)O)(c2ccccc2)CC1,inactive: -0.752,–,inactive: 0.717
C=CCC(C(=O)NC(N)=O)C(C)C (stereo not given),inactive: -1.7,inactive: 2.56,inactive: 0.0616
NC(Cc1ccc(O)cc1)C(=O)NC(Cc1ccc(O)cc1)C(=O)NC(Cc1ccc(O)cc1)C(=O)O (stereo not given),inactive: -0.732,inactive: 0.929,inactive: 0.454
CN1CCN(C(=O)Cc2ccc3ccccc3c2)CC1,inactive: -0.375,inactive: -1.87,inactive: -1.15
O=C1Nc2ccc(Br)cc2C(c2ccc(Cl)cc2)=NC1O (stereo not given),inactive: -1.54,inactive: -0.248,inactive: 0.281
Clc1ccc(C2(Cn3cncn3)OCCO2)c(Cl)c1,inactive: -0.525,inactive: -0.163,inactive: 0.397
Cc1nnc2n1-c1sc(CCC(=O)N3CCOCC3)cc1C(c1ccccc1Cl)=NC2,inactive: 3.39,inactive: -0.223,inactive: 0.576
O=C(CBr)N1CC([N+](=O)[O-])([N+](=O)[O-])C1,inactive: -0.397,inactive: -0.183,inactive: 1.58
C[C@@H]1CN2c3c(cc4c(N5C(=O)OC[C@H]5C)noc4c3F)CC3(C(=O)NC(=O)NC3=O)[C@@H]2[C@H](C)O1,inactive: -1.22,inactive: 2.59,inactive: -1.45
BrC(Br)Br,inactive: -1.91,inactive: -1.05,inactive: -0.231
CN1c2ccccc2C(NCCCCCCC(=O)O)c2ccc(Cl)cc2S1(=O)=O (stereo not given) [tianeptine],–,inactive: -2.04,–
CN1c2ccccc2C(NCCCCCCC(=O)O)c2ccc(Cl)cc2S1(=O)=O (stereo not given) [Tianeptine sodium],inactive: -0.473,–,inactive: -1.68
